In paper PMC10482750:
Results are given in words; binding and its absence hold for the method and conditions named. Some entries that bind do so weakly or less than the wild type. Sequences can lack the tags named with a protein.

Amino acid sequences for entries named in this document (tags omitted).
UniProt Q9V460: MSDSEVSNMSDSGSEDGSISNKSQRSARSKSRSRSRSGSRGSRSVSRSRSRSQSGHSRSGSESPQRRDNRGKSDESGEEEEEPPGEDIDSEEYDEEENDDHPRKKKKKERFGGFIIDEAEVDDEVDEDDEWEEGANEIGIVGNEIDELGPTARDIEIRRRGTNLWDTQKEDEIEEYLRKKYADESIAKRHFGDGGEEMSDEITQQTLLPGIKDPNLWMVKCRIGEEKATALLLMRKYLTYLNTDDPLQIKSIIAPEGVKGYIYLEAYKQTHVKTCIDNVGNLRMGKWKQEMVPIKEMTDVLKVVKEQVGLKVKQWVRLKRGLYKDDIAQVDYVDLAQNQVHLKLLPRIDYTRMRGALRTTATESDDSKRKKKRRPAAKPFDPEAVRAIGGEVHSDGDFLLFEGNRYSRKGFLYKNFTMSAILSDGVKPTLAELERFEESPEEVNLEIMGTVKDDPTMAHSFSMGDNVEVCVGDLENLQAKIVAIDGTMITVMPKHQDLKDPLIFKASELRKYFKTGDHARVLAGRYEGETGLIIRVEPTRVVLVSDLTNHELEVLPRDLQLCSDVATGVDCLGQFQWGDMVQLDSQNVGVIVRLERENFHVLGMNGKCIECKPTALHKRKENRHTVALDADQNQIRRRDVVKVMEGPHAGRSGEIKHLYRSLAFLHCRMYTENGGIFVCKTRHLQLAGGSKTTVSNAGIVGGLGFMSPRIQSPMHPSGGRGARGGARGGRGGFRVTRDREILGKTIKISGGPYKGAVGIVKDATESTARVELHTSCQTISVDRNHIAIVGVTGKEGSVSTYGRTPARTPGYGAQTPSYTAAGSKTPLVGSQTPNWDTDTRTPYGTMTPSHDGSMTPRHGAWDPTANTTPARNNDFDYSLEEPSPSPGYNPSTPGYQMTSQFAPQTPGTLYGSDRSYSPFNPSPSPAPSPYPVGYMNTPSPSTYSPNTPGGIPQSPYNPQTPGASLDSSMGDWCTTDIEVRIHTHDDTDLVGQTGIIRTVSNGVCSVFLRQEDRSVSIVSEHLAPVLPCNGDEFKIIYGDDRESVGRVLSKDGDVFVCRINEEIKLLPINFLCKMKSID

T1: His10-NELF-E (Drosophila) (UniProt P92204)
T1 sequence: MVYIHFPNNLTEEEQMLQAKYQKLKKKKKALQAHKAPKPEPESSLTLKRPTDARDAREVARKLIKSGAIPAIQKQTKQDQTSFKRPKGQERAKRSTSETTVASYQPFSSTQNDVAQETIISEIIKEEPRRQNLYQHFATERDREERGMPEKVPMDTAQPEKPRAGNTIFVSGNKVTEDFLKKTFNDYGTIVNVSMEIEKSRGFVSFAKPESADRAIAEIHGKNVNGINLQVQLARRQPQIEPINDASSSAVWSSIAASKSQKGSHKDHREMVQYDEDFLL

T2: NELF-D-3x-FLAG (Drosophila) (UniProt Q24134)
T2 sequence: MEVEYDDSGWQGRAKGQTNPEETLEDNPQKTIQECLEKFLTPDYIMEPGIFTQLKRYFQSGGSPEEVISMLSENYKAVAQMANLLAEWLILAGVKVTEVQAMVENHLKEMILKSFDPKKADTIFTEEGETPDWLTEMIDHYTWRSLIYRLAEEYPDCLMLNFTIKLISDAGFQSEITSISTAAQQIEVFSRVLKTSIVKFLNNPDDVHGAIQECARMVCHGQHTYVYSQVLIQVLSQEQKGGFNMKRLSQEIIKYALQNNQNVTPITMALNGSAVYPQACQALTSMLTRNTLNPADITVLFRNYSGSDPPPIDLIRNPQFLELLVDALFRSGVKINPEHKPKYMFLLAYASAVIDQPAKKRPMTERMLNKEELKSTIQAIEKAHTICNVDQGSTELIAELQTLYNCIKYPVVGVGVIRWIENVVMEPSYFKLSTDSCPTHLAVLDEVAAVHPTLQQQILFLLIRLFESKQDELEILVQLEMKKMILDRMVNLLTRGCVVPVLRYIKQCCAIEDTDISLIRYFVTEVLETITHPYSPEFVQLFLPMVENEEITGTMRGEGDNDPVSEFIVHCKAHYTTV

B1: Spt4, C-terminal His6-tagged (protein, UniProt Q9TVQ5 1-116)
chain: MAFDAIPKDLRGLRACLVCSLVKSFDQFETDGCENCEEFLRMKNNKDNVYDHTSNNFDGIIALTTPTDSWVAKWQRLSRFTRGIYAISVSGTLPQSTLRDMKNRGIVYKSRDRSQR
B2: NELF-A (protein, UniProt Q86NP2 1-1251)
chain: MANVRDSDTSLWLHNKLGTSNDSWINGSICSQLNKEVLRNIKECFPDLQTQVKLKLLLSFLHIPRRLVEEWKAELEEVIEVAGLDSELWVSMLAETMKTFPATSSLNTEISDYEDTRPIFIDMVNDLRKLVTKHSDLGMLPLECQYLNKNALISVVGQQPAPVKHFTLKRKPKSAQLRTELLHKSADAQSSLKKASAPTIPLRSRGMPRKMTDTTPLKGIPSRMPTTGFRSATVPGNAAQRPNLSRTPAGRKDGGIKLIEFTEQPLGYAAAKKRKREQQLEEQQKKQEQKQQQAAAAAAAAATAAASNAGDSSPTDAATASGGETPVTPTSANNSFEIKMEPQQLNQSAGSLEEPQDDEMSGKANMECDIETPEYATATLDFAQATSTSVADGQPGKPAVETKLKTPRTPKSAAKLNNNNNNNNNNSFNHTPKRIKQEIEIKSEEIIVPASIKLEKIETSPSTQRVSIQQQPPSLVQRTPHLLIRSSPQKRQNNGATTSAGTTTTTVGNTTIKMEKLDIKPMIRATGVSPSTSAGTTTTLLTPQQLRQAANPLANLPNNISVKITSAKAKAAAAAAATSSGSQTQSQQPQTLQVQQAPQQSHPPLLINSSTPVILASSPSAQRAKALALPSSSTSATTTTTIPSQAIKTMPLSQLKTATNSGPVIISQTIIQPAKRAQQQAGTSSAAAASQQQQQQQSQQQLLHQQIQQQTQQQAQLPQQPQQQQTQYILATPQQQPQQIQQQQQQQQPILPTLTSFSHSRPMPQTTTLYQATTPSGSGQTPTKILLKTSGSSSVVMTPLRQAQPQQATAVVSSNPPPLVATSAAVVSPGQTTLNIQNVQLPNRPVTIQPASQAAQQQHMQAQLQQQQPHPQHTIVANTTATQQPKLSQVLMQPTAAVGTSGVSALNVSPTSGKNKTIILTQKGVILRNIGGDMYQQIPISNVGNMQGLGGTTLMTTTAGPPSLVKTTPSSGVQLQQQQSGKQILPTLIPTSSLGGQHVIVQQQQPTNVIGNSQQQTIIRPVMTNVGGGLTTLPQGLTLIQRPGQQPQLVQVQAAPGSTQRTIITQSNTAAAASQQQPRQQQQQILVQHKPAPTLQQRLVTSTTSGGQGQQGNPNAGLPRTVQVQVQAQQQQQPQQQQATQQQSQQAPQRRGLSLSNEHVHKAHEMFRKANRVSRPDKALILGFMAGLRENPRPNNENVLVIKLGETEEKVQQDNGHTALCLVESHIRLDYNTGEWKTFQNYRLQDQSAAS
B3: His10-NELF-E (protein, UniProt P92204 1-280)
chain: T1 sequence

How the values were obtained:
[1] = target: Spt5, C-terminal FLAG-tagged (Drosophila) (UniProt Q9V460); experiment: tandem affinity co-purification; Spt5-FLAG and Spt4-His6 co-expressed in E. coli; Talon metal affinity resin, then anti-FLAG resin; washes with 300 mM NaCl
[2] = target: T1, His10-NELF-E (Drosophila); experiment: tandem affinity co-purification; four NELF subunits co-expressed in Sf9; Ni-NTA (His10-NELF-E), then anti-FLAG resin (NELF-D-3x-FLAG); washes up to 500 mM NaCl, 250 mM KCl and 0.4 M KCl
[3] = target: T2, NELF-D-3x-FLAG (Drosophila); experiment: as above

Binder	binding [1]	binding [2]	binding [3]
B1	binds	–	–
B2	–	binds	binds
B3	–	–	binds
